For test [1], the target named is T1, ELF3-HFC (EARLY FLOWERING 3, C-terminally tagged with 6xHis-3xFlag) (A. thaliana) (UniProt O82804).
T1 sequence: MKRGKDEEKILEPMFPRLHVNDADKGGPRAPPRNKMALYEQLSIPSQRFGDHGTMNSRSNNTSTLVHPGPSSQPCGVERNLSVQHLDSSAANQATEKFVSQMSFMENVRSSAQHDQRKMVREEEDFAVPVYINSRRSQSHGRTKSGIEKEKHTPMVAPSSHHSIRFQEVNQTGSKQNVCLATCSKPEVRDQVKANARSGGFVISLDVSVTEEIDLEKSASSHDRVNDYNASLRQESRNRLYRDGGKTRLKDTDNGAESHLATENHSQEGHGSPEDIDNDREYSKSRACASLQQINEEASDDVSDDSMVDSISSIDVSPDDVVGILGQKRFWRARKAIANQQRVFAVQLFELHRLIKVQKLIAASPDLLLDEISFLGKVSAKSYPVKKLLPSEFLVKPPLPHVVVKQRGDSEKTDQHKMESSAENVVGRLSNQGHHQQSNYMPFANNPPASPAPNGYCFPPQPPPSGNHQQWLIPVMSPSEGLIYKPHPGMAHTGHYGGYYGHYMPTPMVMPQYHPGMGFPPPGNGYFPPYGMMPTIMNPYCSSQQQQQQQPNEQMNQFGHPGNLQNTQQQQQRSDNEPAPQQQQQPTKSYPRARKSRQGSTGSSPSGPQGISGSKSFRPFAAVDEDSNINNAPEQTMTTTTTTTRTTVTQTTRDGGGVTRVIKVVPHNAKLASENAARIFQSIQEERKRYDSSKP
Briefly: affinity purification with mass spectrometry; ELF3-HFC as bait from ELF3::ELF3-HFC #3 elf3-2 seedlings, harvested at ZT12; anti-FLAG beads, 3xFLAG peptide elution, then Talon beads; on-bead digest, LC-MS/MS; compared with GFP-HFC; two replicates; …, TOC1 and TIC also coprecipitated from the phyB-9 background.

Sequences of proteins named here, by UniProt entry; tags and fusion partners are left off. A change or cut given only in a name is not applied to a line headed by its entry.
UniProt Q94KE2: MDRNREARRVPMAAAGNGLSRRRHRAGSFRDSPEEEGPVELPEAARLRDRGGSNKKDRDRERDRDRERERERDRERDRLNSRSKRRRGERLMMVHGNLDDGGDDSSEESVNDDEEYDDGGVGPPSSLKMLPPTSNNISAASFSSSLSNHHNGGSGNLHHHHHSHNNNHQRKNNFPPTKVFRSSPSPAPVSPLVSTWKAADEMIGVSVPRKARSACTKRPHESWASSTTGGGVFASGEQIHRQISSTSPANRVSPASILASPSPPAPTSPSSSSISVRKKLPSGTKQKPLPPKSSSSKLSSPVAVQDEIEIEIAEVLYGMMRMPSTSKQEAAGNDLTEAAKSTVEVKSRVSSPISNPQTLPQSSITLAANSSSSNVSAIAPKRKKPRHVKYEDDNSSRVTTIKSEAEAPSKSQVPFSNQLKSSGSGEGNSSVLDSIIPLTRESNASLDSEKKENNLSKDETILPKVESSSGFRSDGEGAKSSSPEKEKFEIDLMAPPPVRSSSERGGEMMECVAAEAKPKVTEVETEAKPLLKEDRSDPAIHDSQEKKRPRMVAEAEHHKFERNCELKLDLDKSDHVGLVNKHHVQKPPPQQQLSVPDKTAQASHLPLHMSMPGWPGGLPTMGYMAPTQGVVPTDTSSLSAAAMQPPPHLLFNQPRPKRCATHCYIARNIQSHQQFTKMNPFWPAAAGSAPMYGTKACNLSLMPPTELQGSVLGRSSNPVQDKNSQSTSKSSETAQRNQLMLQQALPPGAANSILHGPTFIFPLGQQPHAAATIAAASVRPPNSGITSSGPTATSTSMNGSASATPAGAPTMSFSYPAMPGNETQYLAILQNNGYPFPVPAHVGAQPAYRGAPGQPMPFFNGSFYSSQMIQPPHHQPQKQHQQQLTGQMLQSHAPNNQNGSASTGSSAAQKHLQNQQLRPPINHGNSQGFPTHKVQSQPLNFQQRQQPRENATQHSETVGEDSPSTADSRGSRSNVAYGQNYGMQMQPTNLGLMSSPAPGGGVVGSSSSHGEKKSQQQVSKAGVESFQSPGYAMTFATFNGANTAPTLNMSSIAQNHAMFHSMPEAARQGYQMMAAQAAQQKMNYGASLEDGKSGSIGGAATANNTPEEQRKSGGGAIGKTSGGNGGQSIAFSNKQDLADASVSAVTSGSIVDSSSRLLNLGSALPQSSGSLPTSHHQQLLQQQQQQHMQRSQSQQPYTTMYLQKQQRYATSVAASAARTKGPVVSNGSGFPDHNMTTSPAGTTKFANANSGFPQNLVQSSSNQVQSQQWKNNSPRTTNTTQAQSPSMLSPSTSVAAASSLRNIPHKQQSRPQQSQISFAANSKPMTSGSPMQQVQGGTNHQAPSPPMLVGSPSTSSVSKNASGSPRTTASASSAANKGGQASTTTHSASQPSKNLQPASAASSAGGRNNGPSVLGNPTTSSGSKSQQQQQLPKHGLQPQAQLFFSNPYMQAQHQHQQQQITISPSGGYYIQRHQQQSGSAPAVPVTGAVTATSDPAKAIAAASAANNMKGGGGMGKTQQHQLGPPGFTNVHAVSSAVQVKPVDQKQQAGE
UniProt P43297: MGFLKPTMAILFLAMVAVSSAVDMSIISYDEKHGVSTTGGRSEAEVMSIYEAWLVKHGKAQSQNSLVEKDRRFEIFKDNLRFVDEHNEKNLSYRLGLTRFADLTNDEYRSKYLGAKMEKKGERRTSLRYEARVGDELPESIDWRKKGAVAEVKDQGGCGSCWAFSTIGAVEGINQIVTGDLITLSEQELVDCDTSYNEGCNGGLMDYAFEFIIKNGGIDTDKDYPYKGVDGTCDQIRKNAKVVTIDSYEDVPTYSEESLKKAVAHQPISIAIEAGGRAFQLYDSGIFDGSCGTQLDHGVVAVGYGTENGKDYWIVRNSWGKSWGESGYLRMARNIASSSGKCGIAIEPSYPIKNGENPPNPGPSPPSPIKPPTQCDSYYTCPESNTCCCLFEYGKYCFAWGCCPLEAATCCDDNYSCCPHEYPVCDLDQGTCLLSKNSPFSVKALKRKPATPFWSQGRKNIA
UniProt P14713: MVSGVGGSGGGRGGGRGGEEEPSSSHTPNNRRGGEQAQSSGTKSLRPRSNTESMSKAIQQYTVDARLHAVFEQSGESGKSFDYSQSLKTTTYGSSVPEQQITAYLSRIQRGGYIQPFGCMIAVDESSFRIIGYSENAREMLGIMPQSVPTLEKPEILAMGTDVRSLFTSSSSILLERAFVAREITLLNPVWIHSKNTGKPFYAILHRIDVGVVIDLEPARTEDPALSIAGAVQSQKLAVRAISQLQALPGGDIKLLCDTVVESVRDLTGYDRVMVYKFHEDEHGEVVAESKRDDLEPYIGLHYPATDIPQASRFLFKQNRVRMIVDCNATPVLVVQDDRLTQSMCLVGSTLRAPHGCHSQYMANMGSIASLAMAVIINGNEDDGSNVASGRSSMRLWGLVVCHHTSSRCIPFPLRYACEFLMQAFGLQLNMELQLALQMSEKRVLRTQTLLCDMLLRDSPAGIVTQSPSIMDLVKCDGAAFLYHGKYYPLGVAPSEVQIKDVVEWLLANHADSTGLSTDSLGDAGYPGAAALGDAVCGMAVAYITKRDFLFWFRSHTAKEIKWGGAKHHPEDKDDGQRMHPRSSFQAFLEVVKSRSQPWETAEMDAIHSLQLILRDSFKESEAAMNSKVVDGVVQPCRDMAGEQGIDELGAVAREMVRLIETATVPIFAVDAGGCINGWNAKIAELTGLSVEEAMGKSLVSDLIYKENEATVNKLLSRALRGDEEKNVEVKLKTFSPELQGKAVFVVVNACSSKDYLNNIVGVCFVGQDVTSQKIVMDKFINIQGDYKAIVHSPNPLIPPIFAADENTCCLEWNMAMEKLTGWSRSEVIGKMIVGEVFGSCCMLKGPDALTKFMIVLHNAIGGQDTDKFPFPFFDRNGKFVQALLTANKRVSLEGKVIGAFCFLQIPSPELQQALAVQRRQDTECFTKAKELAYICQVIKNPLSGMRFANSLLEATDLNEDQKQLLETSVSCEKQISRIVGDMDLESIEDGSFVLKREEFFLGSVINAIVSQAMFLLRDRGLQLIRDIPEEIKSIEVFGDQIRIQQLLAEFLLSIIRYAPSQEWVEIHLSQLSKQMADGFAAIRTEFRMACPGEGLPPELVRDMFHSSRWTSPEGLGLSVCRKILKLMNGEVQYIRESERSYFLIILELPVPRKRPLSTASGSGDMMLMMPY
UniProt O24456: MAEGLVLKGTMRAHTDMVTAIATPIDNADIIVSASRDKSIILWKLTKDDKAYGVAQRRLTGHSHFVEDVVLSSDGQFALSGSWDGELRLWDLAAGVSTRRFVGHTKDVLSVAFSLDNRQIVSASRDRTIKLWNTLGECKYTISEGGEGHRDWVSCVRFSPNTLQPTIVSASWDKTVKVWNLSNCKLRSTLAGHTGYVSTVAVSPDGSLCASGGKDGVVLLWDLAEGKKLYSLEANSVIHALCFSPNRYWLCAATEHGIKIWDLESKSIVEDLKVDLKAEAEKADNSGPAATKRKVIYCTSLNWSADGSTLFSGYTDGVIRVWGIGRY

For test [2], the target named is T1, ELF3-HFC (EARLY FLOWERING 3, C-terminally tagged with 6xHis-3xFlag) (A. thaliana). In words: affinity purification with mass spectrometry; ELF3-HFC as bait from ELF3::ELF3-HFC #3 elf3-2 elf4-2 seedlings (no ELF4); same tandem purification; two replicates.
Test [3] shares this target. In words: affinity purification with mass spectrometry; ELF3-HFC as bait from ELF3::ELF3-HFC #3 elf3-2 phyB-9 seedlings (no phyB); same tandem purification; two replicates.
Test [4] has the same target. Briefly: condition: only in the elf4-2 mutant background (no ELF4); affinity purification with mass spectrometry; ELF3-HFC as bait from ELF3::ELF3-HFC #3 elf3-2 elf4-2 seedlings (no ELF4); same tandem purification; two replicates.
The target is the same in test [5]. In words: affinity purification with mass spectrometry; ELF3-HFC as bait from ELF3::ELF3-HFC #3 elf3-2 seedlings, harvested at ZT12; anti-FLAG beads, 3xFLAG peptide elution, then Talon beads; on-bead digest, LC-MS/MS; compared with GFP-HFC; two replicates; …, TOC1 and TIC also coprecipitated from the phyB-9 background. This is another data set of the same source.

Test [6] has as its target T2, ELF4-HFC (EARLY FLOWERING 4, C-terminally tagged with 6xHis-3xFlag) (A. thaliana) (UniProt O04211).
T2 sequence: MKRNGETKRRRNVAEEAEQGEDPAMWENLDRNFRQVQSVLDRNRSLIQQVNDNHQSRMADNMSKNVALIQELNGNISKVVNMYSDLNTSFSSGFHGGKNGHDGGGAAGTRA
Briefly: affinity purification with mass spectrometry; ELF4-HFC as bait from ELF4::ELF4-HFC #51 elf4-3 phyB-9 seedlings (no phyB); same tandem purification; three replicates.

These are yes or no findings as the source states them, for the method shown. Binding seen in cells or lysates may run through a third protein. A yes stands for co-enrichment or nearness to the bait. Other partners may have been found. For some of these results: No binding means not detected with the bait. Tags and fused reporters may be left off the sequences shown.

Consider “TIME FOR COFFEE (from UniProt Q94KE2 1-1550)”, for which the binding result in test [1] is “binds”.
On to “protease RD21a (from UniProt P43297) (enzyme)”, for which, in test [2], the binding entry was “binds”.
“phytochrome B (from UniProt P14713 1-1172) (receptor)”: in test [1], the binding result is “binds”.
With RACK1A (from UniProt O24456 1-327), the binding result in test [3] was “binds”.

B1: … (protein, UniProt Q9M2N5 1-696)
chain: MEVYNDDTEMRSPETQPIKETALEVYNDTAEIRSPETQPIEETALEVYNDTEMVSPETQPIKRRKKKSMVWEHFTIEAVEPNCRRAFCKGCNQSFAYSNGNKVAGTSHLKRHIFKGTCPALIHTHDNDNNPLMSTPYTPKTDTPRRRYRSQNNASPYVAFNQDKCRQEIAKMIIMHDYPLHMVQHPGFVSFVQSIQPHFDAVSFNNVQGDCVATYLAEKQNVMKSLEGIPGRFCLTLDFWTSKLTLGYVFITAHYIDSDWKIQKKLLNVLMESYPEADEALSLAVANCVSEWGLEGKLFNVTFNHPASNSAVENIRPQLCIKNPGILDGQLVIGNCVARTFGSLAKDVLEKGKDVIKNIRDSVKHVKTSESHEERFTELKEQLQVPSEKVLSLDDQTQWNTTYMMLVAASELKEVFSCLDTADPDYKKPPSAEDWRHVEALCTFLKPLFEAVSTLQSTGNPSAVTFFHEVWKTQSDLSRAIAGEDPFVTGIAKTMQEKVDKYWRDCSLVLAMAVVMDPRFKMKLVEFSFSKIFGEDAGKNIKTVDDGIHELFTEYMALPSPQNTTSEGGKADGLSDFDTYIMETTGQNLKSELDQYLDETLLPRVQEFDVLDWWKQNKLKYPTLSKMARDILSIPVSAAAFDYVFDMEPREMDEYKTSLRPETVEALICAREWLLESNASSSAAAQNASATIKSEA
With B1, the binding result is reported as “no binding” in test [4]; “binds” in test [5]; “binds” in test [5] (record 2); “binds” in test [5] (record 3); “binds” in test [2]; “binds” in test [2] (record 2). In addition, the binding result in test [2] (record 3), in test [2] (record 4) and in test [6] was “binds” in each case.
